Experimental findings from patent US20240383900A1, “SUBSTITUTED PYRAZOLO [1,5-A]PYRIMIDINE-7-AMINE COMPOUNDS AS CDK INHIBITORS AND THEIR THERAPEUTIC USE” (Carrick Therapeutics Limited, priority 2021, published 2024) are described below.

By IC50 is commonly meant the concentration that inhibits the measured activity by half.

This experiment has as its system A673 cells. The experiment is described as follows: Cytotoxicity in A673 cells (Cell Titer Glo viability). The experiment is classed as cell-based. Particulars: Homo sapiens, read-out: Cellular Potency IC50 (nM) (in A673 cells). On the procedure:
Cells were plated in 96-well plates at a density of […] viable cells per well in 200 μL fully supplemented growth medium (DMEM+10% heat inactivated foetal bovine serum) and incubated for 24 hours in standard tissue culture conditions. Compounds, including MLN4924, were solubilised in DMSO and then diluted in fully supplemented growth medium at 2× their final assay concentration such that the final DMSO concentration was 0.1%. Growth medium in the assay plates was replaced with 50 μL of growth medium containing 2×MLN4924 (final assay concentration: 30 nM, where tested) or vehicle only and 50 μL of growth medium containing a 2× compound concentration series or vehicle only such that each compound was at 1× final assay concentration in 100 μL.
Cells were then incubated for 72 hours in standard tissue culture conditions before viability was assessed using 50 μL Cell Titer Glo reagent (Promega) per well and luminescence measured on an EnVision plate reader. Data were normalised to vehicle control (100%) and cells treated with 0.1% Triton x-100 for 1 hour before viability measurement (0%; full cell kill). […] Viability curves generated in the presence of MLN4924 were normalised and fixed to controls treated with MLN4924.
(In general: In ATP-based viability assays light output follows the ATP content of the culture.)

With `CCc1cnn2c(NCc3ccc[n+]([O-])c3)cc(N3CCCC[C@H]3CCO)nc12` [Dinaciclib, reference compound], the IC50 came to 4.9 nM.
